PubChem BioAssay AID1053208, Peter MacCallum Cancer Centre | 2014

Purpose: 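Synthetic lethal interactions between gene loss and doxorubicin in osteosarcoma cells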 (primary screen)
System: mouse osteosarcoma cells, early-passage culture from an engineered mouse model of fibroblastic bone tumour
Knock-down reagent: siRNA pool against mouse genes, 40 nM
Time to read-out: about 120 h (48 h before drug, then 72 h with drug)
Treatment: doxorubicin 100 nM for 72 h, roughly 30-40% inhibitory dose
Detection: 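Viability read as ATP luminescence after 72 h of 100 nM doxorubicin or none, duplicate wells averaged, scaled to non-targeting siRNA, then expressed as robust z-scores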
Reading the numbers: viability z-score with doxorubicin: higher = more viable cells under doxorubicin; viability z-score without drug: higher = more viable cells with knock-down alone
Call rule: 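a pool counts as active when its viability z-score with doxorubicin is -2 or below and its z-score without drug lies between -2 and 2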
Here is one part, drawn at random, of about 17,000 reagents tested. Of all reagents, 788 (4.7%) were called active. 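Calls rest on z-score classes alone; an extra cut-off of viability at most 70% of control was not applied to them.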 A number with no mark means an inactive call. Reagents against one gene are numbered here. Further read-outs or replicates are left out here. No sequences are given here.

Gene | pool no. | combined z-score class | viability z-score with doxorubicin | viability z-score without drug
Hoxb8 (homeobox B8) | 1 | no change with or without drug | 0.79 | 0.67
Mfap4 (microfibrillar-associated protein 4) | 1 | no change with or without drug | 1.24 | 0.17
Selenos (selenoprotein S) | 1 | no change with or without drug | -0.67 | 0.51
Erap1 (endoplasmic reticulum aminopeptidase 1) | 1 | high cell count with and without drug | 5.4 | 2.53
Chrna3 (cholinergic receptor, nicotinic, alpha polypeptide 3) | 1 | no change with or without drug | -0.22 | 0.34
Slc46a3 | 1 | no change with or without drug | -1.12 | 1.18
Tnk1 (tyrosine kinase, non-receptor, 1) | 1 | no change with or without drug | 1.69 | 0.51
Susd4 (sushi domain containing 4) | 1 | no change with or without drug | 0.11 | 0
Or7c70 (olfactory receptor family 7 subfamily C member 70) | 1 | no change with or without drug | -0.56 | -0.84
Or9g3 (olfactory receptor family 9 subfamily G member 3) | 1 | low cell count without drug only | -1.57 | -2.7
Alg13 (asparagine-linked glycosylation 13) | 1 | no change with or without drug | -0.22 | 0.84
Slc35f1 | 1 | low cell count with doxorubicin only (active) | -2.02 | -0.17
S100a13 (S100 calcium binding protein A13) | 1 | no change with or without drug | -0.22 | -1.18
AY358078 (cDNA sequence AY358078) | 1 | no change with or without drug | -0.67 | -0.67
Smoc2 (SPARC related modular calcium binding 2) | 1 | no change with or without drug | 0 | 0
Ighmbp2 (immunoglobulin mu DNA binding protein 2) | 1 | no change with or without drug | -1.69 | -0.51
Arpin (actin-related protein 2/3 complex inhibitor) | 1 | no change with or without drug | 0.67 | 1.52
Mecp2 (methyl CpG binding protein 2) | 1 | no change with or without drug | 0.9 | -0.84
Opa1 (OPA1, mitochondrial dynamin like GTPase) | 1 | no change with or without drug | 0.56 | -0.17
3110009E18Rik (RIKEN cDNA 3110009E18 gene) | 1 | no change with or without drug | 1.69 | 1.52
Tktl1 (transketolase-like 1) | 1 | no change with or without drug | -0.22 | 0.84
Or4b1d (olfactory receptor family 4 subfamily B member 1D) | 1 | no change with or without drug | -1.35 | -1.85
Osbpl3 (oxysterol binding protein-like 3) | 1 | no change with or without drug | -0.34 | -0.84
Defa-rs2 (defensin, alpha, related sequence 2) | 1 | high cell count without drug only | 0.9 | 2.36
Or5t9 (olfactory receptor family 5 subfamily T member 9) | 1 | no change with or without drug | -1.01 | 0.17
Vmn1r27 (vomeronasal 1 receptor 27) | 1 | no change with or without drug | 0.56 | -0.67
Or10z1 (olfactory receptor family 10 subfamily Z member 1) | 1 | no change with or without drug | 0 | -0.51
Gmcl1 (germ cell-less, spermatogenesis associated 1) | 1 | no change with or without drug | -1.24 | 1.18
Sc5d (sterol-C5-desaturase) | 1 | no change with or without drug | -0.9 | 0.34
Xpo1 (exportin 1) | 1 | no change with or without drug | -1.12 | -0.51
Ubn1 (ubinuclein 1) | 1 | high cell count with doxorubicin only | 2.02 | 1.52
Map2k3os (mitogen-activated protein kinase kinase 3, opposite strand) | 1 | no change with or without drug | 0.22 | 1.52

Sorted by “viability z-score with doxorubicin” (highest first): some entries from above.
Gene | pool no. | combined z-score class | viability z-score with doxorubicin | viability z-score without drug
Erap1 (endoplasmic reticulum aminopeptidase 1) | 1 | high cell count with and without drug | 5.4 | 2.53
Tnk1 (tyrosine kinase, non-receptor, 1) | 1 | no change with or without drug | 1.69 | 0.51
Mfap4 (microfibrillar-associated protein 4) | 1 | no change with or without drug | 1.24 | 0.17
Susd4 (sushi domain containing 4) | 1 | no change with or without drug | 0.11 | 0
Chrna3 (cholinergic receptor, nicotinic, alpha polypeptide 3) | 1 | no change with or without drug | -0.22 | 0.34
Or7c70 (olfactory receptor family 7 subfamily C member 70) | 1 | no change with or without drug | -0.56 | -0.84
Selenos (selenoprotein S) | 1 | no change with or without drug | -0.67 | 0.51
Slc46a3 | 1 | no change with or without drug | -1.12 | 1.18

Continued:
Gene | pool no. | combined z-score class | viability z-score with doxorubicin | viability z-score without drug
Cyp1a1 (cytochrome P450, family 1, subfamily a, polypeptide 1) | 1 | no change with or without drug | 0.22 | 0.51
Psors1c2 (psoriasis susceptibility 1 candidate 2 (human)) | 1 | high cell count with and without drug | 4.95 | 2.7
Ppfia1 | 1 | no change with or without drug | 0.9 | -0.17
Cnot9 (CCR4-NOT transcription complex, subunit 9) | 1 | no change with or without drug | -0.9 | -0.17
BC006583 | 1 | no change with or without drug | 0.9 | 1.18
Rcvrn (recoverin) | 1 | no change with or without drug | -0.56 | 0.17
Slc16a3 | 1 | low cell count with doxorubicin only (active) | -4.72 | -0.51
Scnn1a (sodium channel, nonvoltage-gated 1 alpha) | 1 | no change with or without drug | -0.45 | -0.34
Fabp7 (fatty acid binding protein 7, brain) | 1 | no change with or without drug | -1.57 | -0.51
Stra8 (stimulated by retinoic acid gene 8) | 1 | high cell count with doxorubicin only | 2.25 | 0.51
Or56a3 (olfactory receptor family 56 subfamily A member 3) | 1 | no change with or without drug | -0.22 | -0.17
Dgcr2 (DiGeorge syndrome critical region gene 2) | 1 | no change with or without drug | 1.35 | -0.34
Fam53b (family with sequence similarity 53, member B) | 1 | no change with or without drug | 0.67 | 1.18
Psmc4 (proteasome (prosome, macropain) 26S subunit, ATPase, 4) | 1 | low cell count with and without drug | -7.64 | -8.94
Mas1 (MAS1 proto-oncogene, G protein-coupled receptor) | 1 | no change with or without drug | 0 | 1.01
Slc16a4 | 1 | low cell count without drug only | -0.67 | -2.19
Cic (capicua transcriptional repressor) | 1 | high cell count without drug only | 1.8 | 2.87
Or5k14 (olfactory receptor family 5 subfamily K member 14) | 1 | no change with or without drug | -0.67 | 1.35
Or5k14 (olfactory receptor family 5 subfamily K member 14) | 2 | no change with or without drug | -1.35 | 1.52
